Reference: article PMC3131266
No constants are given. Whether binding was seen depends on the method and setting. Some entries that bind do so weakly or less than the wild type.

Amino acid sequences for entries named in this document (tags omitted). Residues count along the entry.
UniProt P07359, residues 17-531: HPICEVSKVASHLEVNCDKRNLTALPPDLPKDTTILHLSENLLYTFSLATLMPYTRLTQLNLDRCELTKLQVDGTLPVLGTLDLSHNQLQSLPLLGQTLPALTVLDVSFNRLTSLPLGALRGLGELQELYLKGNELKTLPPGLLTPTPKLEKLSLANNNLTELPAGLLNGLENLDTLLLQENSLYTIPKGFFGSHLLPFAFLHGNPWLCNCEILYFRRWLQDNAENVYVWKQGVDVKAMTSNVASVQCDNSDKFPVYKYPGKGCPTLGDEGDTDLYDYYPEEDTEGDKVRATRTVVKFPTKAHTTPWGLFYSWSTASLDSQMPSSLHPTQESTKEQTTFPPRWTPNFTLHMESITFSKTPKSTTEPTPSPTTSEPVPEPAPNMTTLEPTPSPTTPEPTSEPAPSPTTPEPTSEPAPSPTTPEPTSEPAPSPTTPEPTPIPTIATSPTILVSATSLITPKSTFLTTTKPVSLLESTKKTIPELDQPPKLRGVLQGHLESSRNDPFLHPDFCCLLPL
UniProt Q939N5, residues 86-3041: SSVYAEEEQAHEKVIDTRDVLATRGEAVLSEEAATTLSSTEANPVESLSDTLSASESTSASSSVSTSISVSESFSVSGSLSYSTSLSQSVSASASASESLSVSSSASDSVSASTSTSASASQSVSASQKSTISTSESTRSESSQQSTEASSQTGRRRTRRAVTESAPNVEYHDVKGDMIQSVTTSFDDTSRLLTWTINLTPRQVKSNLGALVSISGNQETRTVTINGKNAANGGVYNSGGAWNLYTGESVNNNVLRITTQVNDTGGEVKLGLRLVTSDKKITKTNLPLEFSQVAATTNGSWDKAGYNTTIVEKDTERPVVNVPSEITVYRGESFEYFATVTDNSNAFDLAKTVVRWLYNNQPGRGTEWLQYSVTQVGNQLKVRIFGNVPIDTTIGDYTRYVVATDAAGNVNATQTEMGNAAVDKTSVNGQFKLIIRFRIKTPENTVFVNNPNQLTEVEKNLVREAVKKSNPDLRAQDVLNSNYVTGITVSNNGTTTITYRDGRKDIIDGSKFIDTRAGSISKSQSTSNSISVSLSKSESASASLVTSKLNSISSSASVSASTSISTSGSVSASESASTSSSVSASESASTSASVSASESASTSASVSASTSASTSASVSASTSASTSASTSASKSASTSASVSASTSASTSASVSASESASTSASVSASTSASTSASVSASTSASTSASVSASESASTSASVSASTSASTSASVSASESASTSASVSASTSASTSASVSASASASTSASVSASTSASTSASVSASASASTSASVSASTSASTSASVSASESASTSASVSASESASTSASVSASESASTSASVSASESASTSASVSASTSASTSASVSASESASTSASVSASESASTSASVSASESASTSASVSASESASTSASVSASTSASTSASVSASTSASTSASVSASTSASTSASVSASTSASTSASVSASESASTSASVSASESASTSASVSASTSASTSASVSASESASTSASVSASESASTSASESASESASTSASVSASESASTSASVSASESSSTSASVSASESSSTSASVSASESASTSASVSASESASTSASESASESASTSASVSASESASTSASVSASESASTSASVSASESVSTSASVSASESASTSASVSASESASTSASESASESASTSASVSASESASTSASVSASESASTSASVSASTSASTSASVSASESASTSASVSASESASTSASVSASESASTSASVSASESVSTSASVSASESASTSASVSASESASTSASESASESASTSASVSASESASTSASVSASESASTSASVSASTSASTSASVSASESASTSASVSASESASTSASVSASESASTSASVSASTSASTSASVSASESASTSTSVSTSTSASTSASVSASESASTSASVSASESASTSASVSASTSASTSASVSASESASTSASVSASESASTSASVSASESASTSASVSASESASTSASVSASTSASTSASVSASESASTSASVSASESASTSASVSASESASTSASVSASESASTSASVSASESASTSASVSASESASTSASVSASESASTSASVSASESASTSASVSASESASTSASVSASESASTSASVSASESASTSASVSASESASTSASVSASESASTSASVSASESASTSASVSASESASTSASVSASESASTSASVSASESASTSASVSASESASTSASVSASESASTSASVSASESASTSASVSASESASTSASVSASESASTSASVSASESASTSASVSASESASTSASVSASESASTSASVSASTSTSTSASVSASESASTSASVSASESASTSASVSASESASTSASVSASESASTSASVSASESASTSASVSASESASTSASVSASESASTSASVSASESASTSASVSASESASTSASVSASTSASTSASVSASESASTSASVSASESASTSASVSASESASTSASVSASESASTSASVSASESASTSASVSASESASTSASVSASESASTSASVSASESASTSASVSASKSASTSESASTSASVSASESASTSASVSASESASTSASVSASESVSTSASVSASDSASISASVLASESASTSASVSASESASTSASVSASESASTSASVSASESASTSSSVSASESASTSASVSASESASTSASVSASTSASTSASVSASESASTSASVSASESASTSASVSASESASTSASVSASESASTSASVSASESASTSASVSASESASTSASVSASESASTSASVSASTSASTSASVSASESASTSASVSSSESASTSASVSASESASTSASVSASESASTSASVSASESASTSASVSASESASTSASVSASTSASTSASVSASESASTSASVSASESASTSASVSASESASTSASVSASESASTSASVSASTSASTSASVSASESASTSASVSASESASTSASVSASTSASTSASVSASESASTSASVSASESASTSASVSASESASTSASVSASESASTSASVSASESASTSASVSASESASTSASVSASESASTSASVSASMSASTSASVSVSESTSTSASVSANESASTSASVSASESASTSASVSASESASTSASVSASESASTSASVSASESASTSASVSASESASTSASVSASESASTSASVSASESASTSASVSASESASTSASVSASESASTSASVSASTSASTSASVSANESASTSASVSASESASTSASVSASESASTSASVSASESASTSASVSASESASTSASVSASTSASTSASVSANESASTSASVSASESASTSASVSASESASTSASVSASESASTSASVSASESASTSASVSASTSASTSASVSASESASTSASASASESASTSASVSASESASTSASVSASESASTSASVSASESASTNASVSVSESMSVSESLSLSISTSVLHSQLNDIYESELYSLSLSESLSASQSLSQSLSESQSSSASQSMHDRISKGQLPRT

Biological target: glycocalicin, the carbohydrate-rich extracellular portion of the platelet membrane glycoprotein GPIbα (human) (UniProt P07359)
Assay: binding of whole bacteria to immobilised protein in microtiter wells; glycocalicin coated on wells (1.25 µg/well); bacteria about 2x10^7 per ml in DPBS, 2 h at room temperature, three washes; bound bacteria released by trypsin and counted by plating; percent of input bound; n = 6; only the target purified

## GspB of Streptococcus gordonii strain M99, wild type, on the bacterial cell surface (from UniProt Q939N5 86-3041)
  binding: binds
